Results on 107 sequences are retold here after PubChem BioAssay AID1508600 (Functional Genomics Laboratory (NCATS/FGL), 2020).

Out of some 53,000 sequences screened, about 3,700 (7%) were called active.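 How the source made its calls: active means gene knockdowns whose robust z-score for IL-1 alpha signal is at least 2 or at most -2, so actives lie on both sides; inactive means the rest.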 The list shows a part of the results.

The nature of this experiment: Components of the Cytosolic LPS Sensing Pathway: Gene Identification via Genome-wide siRNA Screen.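 Further: robust z of the log signal after scaling to non-targeting control siRNA wells of the plate.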 Conditions: RAW264.7 macrophages, IL-1a HTRF, actives lie on both sides, screened at 100 nM (by protocol), cells primed 5 h with Pam3CSK4 first. In outline:
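IL-1a HTRF of supernatants after 24 hour LipidA transfection of Pam3CSK4-primed (5 hours) RAW264.7 cells, 48h post-siRNA transfection (100 nM). Scores: percent of plate negative-control median, then log-based robust z-score.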
(In TR-FRET formats the signal depends on donor and acceptor labels being close together.)
On to UAGUCGGCCACUUCAGAGATT against Olfr825, for which the z-score was inactive: 1.35.

With GCUGACCUACAUCUCGAAGTT against Plekha2, the z-score was inactive: 0.274.

GCUCCAACAAGGCAUAAAATT against Dis3: the z-score was inactive: -1.71.

Turning to GGGUUUCACCCAAAGCCUUTT against Zfp354c, the z-score is inactive: -1.41.

Consider GCAGACAACGCACUGAUGATT against Zfp804a, for which the z-score is inactive: -0.0561.

As for GCUGCAAUAGUCACUGGAGTT against H2-K1, the z-score was inactive: 0.115.

With GGUAUCCACAGUAAAAUUGTT against Pcp4, the z-score was inactive: -0.407.

As for GGUGCUGGUUUUUAAGAAATT against Hsbp1, the z-score is inactive: 1.84.

Regarding GGAACAGUCAUAUAAAGAATT against Grm8, the z-score is inactive: 0.218.

On to GGUUACCAUGAGGAGGAUUTT against Spata6, for which the z-score is inactive: -1.37.

Consider GCUCUCUUAAAGCAUGUAATT against Cog6, for which the z-score was inactive: 0.213.

With GGCUCCUGAUUGUUUACCCTT against Hbb-bh1, the z-score is inactive: 1.05.

Turning to GCUUUGUUGGGAGUGAAAUTT against Olfr728, the z-score is active: -2.11.

With CGGCAACCAAUGCAUACAATT against Tpd52, the z-score is inactive: 0.441.

As to “GGCAGGUAAUAAACAGACATT against 2410141K09Rik”, the z-score was inactive: -1.38.

GGACCAUGUUAGAGCAUGCTT against Traf2: the z-score was active: -2.36.

GGAUUGUGCUGUGAAACAUTT against Pilrb1: the z-score was inactive: -1.89.

Consider GCUUUUUAAGACUUUGUCATT against Mcl1, for which the z-score was inactive: -0.267.

With GGAAAUCUAUUUCAUUGACTT against Zcchc10, the z-score is inactive: 0.956.

With GGCAACUAUGUAAAACCUUTT against Sorbs1, the z-score is inactive: -0.0324.

As for GGAAAAAAAAAUGACUCCUTT against Kcne1, the z-score was inactive: 0.591.

As for GGUUCUUUUUACUCAGUGGTT against Ankhd1, the z-score was active: -2.53.

CGAGCUUAUCAUCAGCGACTT against Polr2f: the z-score was active: -2.74.

For GGGAGUUAUUUAAGAUUCUTT against Has1, the z-score is inactive: 0.0567.

On to GGGCAACUUUUUGAUAUUCTT against Nacc2, for which the z-score is inactive: -0.601.

Consider GCUCCAGUUAAAUGUUACATT against Icam5, for which the z-score was inactive: 0.169.

Turning to GCAAAAAUGUUAAGGGUGCTT against Snph, the z-score was inactive: -1.97.

On to GCUAAAUUACACAUUGACCTT against Vcam1, for which the z-score is inactive: 0.226.

In the case of CCGGACUUUAGAAUAAUGUTT against Hhex, the z-score was inactive: 0.144.

With CCCUCUUUACCAGUAUUACTT against Pla2g5, the z-score was inactive: 0.287.

CCAUCGAUCACGUCAAAGGTT against Rbm15b: the z-score is inactive: -1.07.

As for GCAAGUGGUGUUUUAACCUTT against Ccdc169, the z-score is inactive: -1.83.

As for GGCUUCAGACAAGCAAUAATT against Lce1l, the z-score was inactive: -1.04.

On to GGGUGUCAUCCUUAUCCUGTT against Olfr655, for which the z-score is inactive: -0.0528.

As for GCCGACUCAUGGUUUAGAATT against Tmem18, the z-score is inactive: -0.0972.

For the sequence GGUAAAGAAUCUCAACAGCTT against Gatb, the z-score was inactive: 0.738.

As for GCAAGUUUAGUGAAUUGUGTT against Ddx58, the z-score is inactive: -0.219.

In the case of GGCUAAAAUCUAUUUAUCGTT against Fezf2, the z-score was inactive: 1.16.

With GGCUUACCGAAAGCAAGCCTT against Dnajb4, the z-score was inactive: 0.0143.

Take GGAGAAAAACACAUCCCAUTT against Foxa2: the z-score was inactive: -1.46.

Regarding GGACCUGAAACACGCCAAUTT against Cdk18, the z-score was inactive: -0.35.

Take GCAAGUCCUAAUAUUGUGATT against Rab5a: the z-score was inactive: 0.0993.

As for GGAUUUGAUCCGAUACCUGTT against Timeless, the z-score is inactive: 0.563.

Consider CCAUGCAUGUUUUAGGCCATT against Gsdmc2, for which the z-score was inactive: -1.21.

As for GGAUCUGUGAGAAUCAUAGTT against Rabgap1l, the z-score was active: -2.24.

With GGGAACCAGGGACUUUGAUTT against AI661453, the z-score was inactive: 0.654.

For GCCCUUACUUAGGUCUAGGTT against Kctd12, the z-score is inactive: -0.522.

With GCCAUAAACCGAGGAAAAATT against Fam71f1, the z-score was inactive: -1.22.

As to GGACUUAGAAGUCUGCUAATT against Iqcb1, the z-score was inactive: -0.845.

Consider GGUGAUUUCAAAUGAAAGCTT against Prps2, for which the z-score was inactive: -0.702.

For the sequence GGGCUAUCGACUCAACAGATT against Kif23, the z-score was inactive: -1.71.

As to GCAGAUAGUUUUGUAACACTT against Bclaf3, the z-score is inactive: 0.807.

Turning to GCAAGUAACUACCAGAGUATT against Cfap20, the z-score is inactive: -0.488.

With GGUUUGCAAUAAUUUUCCCTT against Cyp2c66, the z-score was inactive: -0.0991.

For GGAUGUUGGAAGAAGGCUUTT against Kcna5, the z-score was inactive: 0.14.

For UGUCUGGAUGUCUAGGUGATT against Pisd-ps1, the z-score was inactive: -0.747.

In the case of GGAAGAAAGUGGCAUAGCCTT against Sirt7, the z-score was inactive: 0.124.

Turning to GGCAAAUCCAAAGUUGUCUTT against Sowahc, the z-score is inactive: -0.878.

As for GCAACAUAAAUCCCAAAGUTT against Myo1h, the z-score was inactive: 0.376.

With CCCGAUUAAAGUUUUGACCTT against Pbx4, the z-score is inactive: 0.995.

Regarding “GGCCUUGUGUGUCCAUCAATT against 4933421I07Rik”, the z-score is inactive: -1.91.

With GGAAGUGCUUAUGUCCUUATT against Cited2, the z-score is inactive: -0.981.

In the case of GGGAGAAUCGUCAAUGAUGTT against Dpysl3, the z-score is inactive: -0.583.

Take GCGAACAUUUUUCAGGGUATT against Nsun7: the z-score was inactive: -0.0457.

GCUCCCUUAGGCUAUGAUATT against Ash2l: the z-score was inactive: -0.658.

As to CCUCAUCACUCAUAGCAGATT against Gfi1, the z-score is inactive: -0.524.

On to CCUACAUGACCACAGAGUUTT against Bbof1, for which the z-score is inactive: 0.413.

Take GGGAAAAUAUCUCAUAUCATT against Colec10: the z-score was inactive: -0.944.

With GGUAGACUGAACUUCAGCATT against Larp6, the z-score was inactive: -1.31.

GGAAGUAUGAAAUUAUCAGTT against Car12: the z-score is inactive: 0.0371.

GGCAGAAAAACUGUGCAACTT against Washc5: the z-score was inactive: 0.732.

As for GUCCCACACUGAUAAGAUUTT against Lcorl, the z-score is inactive: -0.602.

In the case of GGACCGAAAGCAUUCGAUUTT against Cdhr3, the z-score is inactive: 1.79.

Regarding GCAAAAUAGCCAGUUAAUGTT against Strn, the z-score was inactive: 1.92.

As to GGCUGGACCAAAUUUGGUATT against Gpihbp1, the z-score was inactive: 0.84.

With CGGGUAUGCCUUAUGUUGATT against Etnk2, the z-score was inactive: -0.216.

On to GGAAACCUUUUACCUUUAATT against Padi1, for which the z-score is inactive: -0.874.

For CGCCGACAGAGUUCAGAAATT against Stpg1, the z-score is inactive: -0.976.

On to GGUGAGAACUCAAGAGACUTT against Scp2, for which the z-score is inactive: -1.06.

GGAUCACACCAUCAAAAAGTT against Copb1: the z-score is inactive: -1.21.

On to GGCGAUAAGGAACAGAAGUTT against Ppp3r1, for which the z-score was inactive: -0.199.

For GGCUCGUCAAAUCAAGUAUTT against H2bc6, the z-score was active: -2.37.

For the sequence GCUUGAUUAUUGUGUGUCCTT against Olfr786, the z-score is inactive: -1.53.

With GGUUGUAUUAUCUUCGGAATT against Psmb8, the z-score is inactive: 0.986.

Regarding GGAACUUCUGGAAUCCCUCTT against Klra5, the z-score was inactive: -0.527.

For the sequence GGCUUACCUAAUCAAUUGUTT against Laptm4a, the z-score is inactive: 0.424.

For the sequence CGAUUCUUUAGGAACUUUGTT against Pak7, the z-score was inactive: -0.0771.

As to CGAACACAUAUAGAUCAUCTT against Atp8b5, the z-score was inactive: 0.000437.

As for GGACAAGCUAAGCAUUGAGTT against Atp6ap1, the z-score was inactive: -1.45.

Turning to GGAAGCUGAAAGAAGGAGATT against Mx1, the z-score was inactive: 1.58.

As for GCGACUGGCGCAACAAAAUTT against Sox18, the z-score was inactive: -0.683.

Take GGAUACUUUGACCAAGUCUTT against Irx6: the z-score is inactive: -1.84.

Regarding GCCAUUCCAAAGUAUUACCTT against Mrpl34, the z-score is inactive: -0.518.

Turning to GCAGAUAGCUGCUACCCAUTT against Tmco6, the z-score is inactive: -0.728.

In the case of GCUGUUCAUAUAUCUUGCUTT against Olfr1386, the z-score was inactive: 1.17.

As to GGUCCCGGAACGGUACUUUTT against Paqr3, the z-score is inactive: -0.778.

Consider GGUCACACUGGUGAAGUCUTT against Tjp1, for which the z-score is inactive: -0.131.

As to GGAUGAGAAUAGCUAGAAATT against Zfp553, the z-score was inactive: 1.96.

Turning to GGCAAGAGAAUUCAGAUCUTT against Slc5a1, the z-score is active: 2.91.

Regarding GGAGUUUCUAGAACUCUCATT against Rtl3, the z-score is inactive: 0.411.

Take CCAUAGCAGGGAAGAUUUUTT against Kcnd2: the z-score is active: 3.78.

In the case of GGUCAGCUAUCUAAUGAUUTT against Fam162a, the z-score is inactive: 0.665.

Regarding GCUAGAUCCCGUGCUUAAGTT against Map1s, the z-score was inactive: -0.156.

GCAUGUCGAGUUUGAUUUCTT against Wdr12: the z-score is inactive: -0.247.

As for GGAUAUCACCCACAAUAAATT against Vps28, the z-score was inactive: -0.653.

Take GGAGUACCUGGAGUUCUUCTT against Zbtb7a: the z-score is inactive: -1.33.

On to GGCUCAUGAGAAGACACACTT against Zbtb17, for which the z-score is inactive: 0.204.
